# Measured values reported in paper PMC6514445, “Enterococcal PcfF Is a Ribbon-Helix-Helix Protein That Recruits the Relaxase PcfG Through Binding and Bending of the oriT Sequence” (Frontiers in Microbiology, 2019).
# These are yes or no findings as the source states them, for the method shown. Tags and fused reporters may be left off the sequences shown.
# Key:
# [1] = target: PcfG-His (relaxase PcfG with a C-terminal deca-histidine tag) (Enterococcus faecalis (plasmid pCF10)) (UniProt Q7X5P3); assay: SEC; refolded PcfG-His on Superdex 200 10/300 GL Increase; both purified
# [2] = target: T1, GST-PcfF1-54 (Enterococcus faecalis (plasmid pCF10)) (UniProt Q5G3N6); assay: pull-down; 2 nmol GST-PcfF or variant immobilised on glutathione-agarose beads, 4 nmol PcfG-His as prey; 20 mM Tris/HCl pH 7.5, 200 mM NaCl; 5 x 10 CV washes, eluted with 30 mM reduced glutathione; SDS-PAGE, Coomassie; both purified
# T1 sequence: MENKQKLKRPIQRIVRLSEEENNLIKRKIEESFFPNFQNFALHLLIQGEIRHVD
binder,measurement,setting,value
"PcfG-His (relaxase PcfG with a C-terminal deca-histidine tag) (enzyme, UniProt Q7X5P3 1-561) MVYTKHFVIHTFDKLNNACSYIENAEKTEVTNDNPSEHLEHLFQYIVNDDKTYMKKLVSGHGIVDPTNPYEEFKLTKLQAAIQRKIGYTFDPKSERLLPPTLTELEKGNAVLAHHLIQSFSPEDDLTPEKIHEIGYNTVMELTGGKYEFVIATHVDKEHLHNHIIFSSTNLKTGKAFRWQKGTKRVFEQISDKIAAKEGAKIIEKSPKQTHTKYTKWQTESIYKQKIKSRLDFLLEQSSSINDFLEKAEALNLSADFSNKWTTYRLLDEPQIKNTRSRSLSKSDPTRYNYEKIIERLKENKNVLTVEECVKRYEEKNEQEKNNFDYQFTIEPWQLSHKTERGYYINIDYGYGNSGKLFVGGYKVDPLDNGNYNIYIKRNEYFYFMSDKDATKSKYLTGASLIKQLRLYNGQTPLKREPVMQTIDELVSAINFLAANEIEDTRQLKLLEEKLEVAFLEAEKTLETLDEKMLELHQLSNLLLENELQGDPELIQKKLKTLLPDATLAEFSYEDVRGEIEAIKTSQTLLESKLERTRNEINQLHEIQAVQEKEPEKQTDIKPKL",binding,[1],no binding
same,binding,[2],"no binding (tested: 4 nmol PcfG-His, 2 nmol GST-PcfF variant)"
